Where a name gives a salt, the structure may show the parent alone.
Tests used:
[1] = system: KBM5-STI^R1.0 cells; details: KBM5-STI^R1.0 vs KBM5
[2] = system: KBM7-STI^R1.0 cells; details: KBM7-STI^R1.0 vs KBM7

Cc1ccc(NC(=O)c2ccc(CN3CCN(C)CC3)cc2)cc1Nc1nccc(-c2cccnc2)n1 [STI-571, imatinib mesylate]
IC50 relative to the value in the corresponding cell line [1]: about twenty | IC50 relative to the value in the corresponding cell line [2]: about twenty

Source: patent US6645972B2, “Methods of treating leukemia” (Shire BioChem Inc., priority 2001, dated 2003)
